# Hit rate of the full screen: of about 340,000 compounds, about 6,200 (1.8%) were called active. The inconclusive results got no clear call from the source; some entries with a clear call stand among them for comparison. Calls follow the shape of the dose curve; as a rule, active = well fitted activation curve with a large enough effect; inconclusive = small, poorly fitted or top-dose-only effect; inactive = no such curve, though single readings can be large or run the other way. Where the call is inconclusive, the potency comes from a doubtful curve fit.
# Test: A quantitative high throughput screen for small molecules that induce DNA re-replication in SW480 colon adenocarcinoma cells. Also: nearly all actives have a fitted effect of over 55% in size. As to re-replication activation: % of control where 0% means no effect.
# Conditions: Hoechst DNA content imaging, 48 h; re-replication activation: at 46.1 µM (top of the series) unless noted
# Procedure, shortened: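 Quantitative HTS format with DMSO vehicle controls; 48 hr drug incubation at 37 C, then 40 min Hoechst staining and scanning imager measurement at 405 nm excitation.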
# Potency is read from the fitted curve at half-maximal effect.
Compound,re-replication activation,Potency
CCN(Cc1ccccc1)C(=O)c1cc(-c2ccc(OC)c(OC)c2)nc2ccccc12,inactive: -1.34%,–
CC1=CCC2COC(c3ccc[n+](Cc4ccccc4)c3)C1C2 (centres undefined),–,"inconclusive: 29.1 µM [activator, single point]"
CC(=O)Oc1cc(C)c(OC(C)=O)c2ccccc12,–,active: 26.6 µM
O=C(c1cnn2c(C(F)(F)F)cc(-c3cccs3)nc12)N1CCOCC1,–,"inconclusive: 9.2 µM [activator, single point]"
Nc1ccc2cc3[nH]c4cc(N)ccc4c3nc2c1,–,active: 3.26 µM
CC[C@]12c3[nH]c4ccccc4c3CCN1C(=O)C(CC(=O)NCc1ccco1)C[C@@H]2C(=O)N1CCN(C(=O)C2CC2)CC1 (some centres undefined),–,"inconclusive: 0.58 µM [activator, full curve, poor fit]"
CCOC(=O)[C@H]1[C@H]2COc3ccc(C)cc3[C@@H]2N2C(=O)c3ccc(Cl)cc3NC(=O)[C@@]12C,inactive: 9.27%,–
O=C(NC(=S)NCC1COc2ccccc2O1)c1ccccc1 (centres undefined),inactive: -0.8%,–
CS(=O)(=O)N1CCN(C2C3CC4CC(C3)CC2C4)CC1 (centres undefined),–,"inconclusive: 29.1 µM [activator, single point]"
COc1ccccc1C(=O)NNC(=O)c1ccc(Br)cc1,inactive: -3.87%,–
CCOP(=O)(OCC)/C(=N/OC(=O)c1ccc(OC)cc1)C(N)=O,–,"inconclusive: 4.11 µM [activator, full curve, poor fit]"
CC(OC(=O)Cc1n[nH]c(=O)c2ccccc12)C(=O)Nc1ccc(F)cc1 (centres undefined),inactive: -136%,–
O=C(/C=C/c1ccccc1)Nc1cccnc1Oc1ccccc1F,–,"inconclusive: 29.1 µM [activator, single point]"
CCN(CC)CCNC(=O)c1nn(-c2ccc(Cl)cc2)c2c1CCc1cc(OC)ccc1-2,–,"inconclusive: 29.1 µM [activator, single point]"
O=C(CN(C(=O)c1csnn1)c1ccc(Cl)cc1)NCc1ccc2c(c1)OCO2,inactive: 4.48%,–
Cc1cccc(C(=O)Nc2cccc3cccnc23)c1,inconclusive: 39.1% [activator],–
CCCN(C(=O)COC(=O)CSc1ccc([N+](=O)[O-])cc1)C1CCS(=O)(=O)C1 (centres undefined),–,"inconclusive: 2.91 µM [activator, partial curve, poor fit]"
COc1ccc(-c2cc(C(=O)Nc3cccc(S(=O)(=O)NCc4ccco4)c3)c3ccccc3n2)cc1OC,–,"inconclusive: 18.4 µM [activator, partial curve, poor fit]"
COc1cccc(CNC(=O)CCC2CCCN(C(=O)c3ccccc3N(C)C)C2)c1 (centres undefined),–,"inconclusive: 7.31 µM [activator, partial curve, poor fit]"
COC(=O)[C@H](CC(C)C)NC(=O)c1cc2c(cn1)[nH]c1ccccc12,–,"inconclusive: 18.4 µM [activator, single point]"
Cc1ccc(C)n1-c1cccc(C(=O)Nc2ccccc2)c1,inactive: 8.37%,–
CC(=O)Nc1cccn(Cc2c(Cl)cccc2Cl)c1=O,inactive: -1.81%,–

Compound,re-replication activation,Potency
CCc1ccc(-c2cc(C)no2)cc1S(=O)(=O)Nc1ccc(C)cn1,–,"inconclusive: 29.1 µM [activator, single point]"
CCCCNS(=O)(=O)c1cc(-c2nn(C)c(=O)c3ccccc23)ccc1C,–,"inconclusive: 29.1 µM [activator, single point]"
Cc1ccc(-n2c(-c3cccc(C)c3)n[nH]c2=S)cc1,–,"inconclusive: 29.1 µM [activator, single point]"
Cc1cc(C)c(C(=O)NC2CCCc3c2cnn3-c2cccc(C)c2C)o1 (centres undefined),–,"inconclusive: 32.6 µM [activator, partial curve, poor fit]"
O=C(C[C@H]1C[C@H](C(=O)N2CCOCC2)[C@@]2(CCC3CCCC3)c3[nH]c4cc(-c5ccco5)ccc4c3CCN2C1=O)NCCC1=CCCCC1,inactive: -0.209%,–
CCOc1ccc2nc(SCC(=O)N3c4ccccc4Sc4ccccc43)c(C#N)cc2c1,inactive: 4.35%,–
COc1ccc(CC(O)COS(N)(=O)=O)cc1 (centres undefined),inactive: -29%,–
C=CCN(CC=C)Cc1c(O)ccc2c1oc(=O)c1ccccc12,inactive: -0.59%,–
CC(=O)CCC(=O)NC1CCCc2c1cnn2-c1ccc(C(C)(C)C)cc1 (centres undefined),–,"inconclusive: 20.6 µM [activator, single point]"
O=C(N/N=C\c1cc2c(cc1Cl)OCO2)c1ccc(Br)s1,–,active: 7.31 µM
CCC1NC(=S)NC(C)=C1C(=O)c1ccccc1 (centres undefined),inactive: -11.2%,–
O=C1c2cccnc2C(=O)N1Cc1ccc(S(=O)(=O)N2CCN(c3ccc(Cl)cc3)CC2)cc1,inactive: -3.83%,–
CC1CCC(C(C)C)C(OC(=O)Cn2c(-c3ccc(Cl)cc3)[n+](C)c3ccccc32)C1 (centres undefined),–,"inconclusive: 29.1 µM [activator, partial curve, poor fit]"
COc1ccc(OCc2cc(C(=O)N(Cc3nccn3C)C(C)C)no2)c2ccccc12,inconclusive: 39.3% [activator],–
CCCCNC(=O)c1ccc(/C=C2\Oc3ccccc3N(C)C2=O)cc1,–,"inconclusive: 16.4 µM [activator, single point]"
COC(=O)c1ccccc1NS(=O)(=O)c1c(C)noc1C,–,"inconclusive: 29.1 µM [activator, single point]"
CCC(C(=O)Nc1ccccc1F)n1nc(C)c2c(C)n(-c3ccccc3)nc2c1=O (centres undefined),–,active: 29.1 µM
COc1ccc(C2(c3ccc(OC)cc3)NC(=O)N(CC(=O)Nc3ccccc3)C2=O)cc1,–,"inconclusive: 29.1 µM [activator, single point]"
CCn1c(=N)n(CC(=O)C(C)(C)C)c2ccccc21,–,"inconclusive: 29.1 µM [activator, single point]"
CCOC(=O)CCc1c(C)nc(-n2[nH]c(C)c(CCO)c2=O)[nH]c1=O,inactive: -0.434%,–
COc1ccc(C(=O)NC(C(=O)NCC(=O)Nc2c(C)cccc2C)C(C)C)cc1 (centres undefined),–,"inconclusive: 3.66 µM [activator, partial curve, poor fit]"
C#CCN1C(=O)C(O)(CC(=O)c2ccc(OC)c(OC)c2)c2ccccc21 (centres undefined),–,"inconclusive: 20.6 µM [activator, single point]"

# 2 records drawn at random from the list so far:
Compound,re-replication activation,Potency
CC1CCC(C(C)C)C(OC(=O)Cn2c(-c3ccc(Cl)cc3)[n+](C)c3ccccc32)C1 (centres undefined),–,"inconclusive: 29.1 µM [activator, partial curve, poor fit]"
C#CCN1C(=O)C(O)(CC(=O)c2ccc(OC)c(OC)c2)c2ccccc21 (centres undefined),–,"inconclusive: 20.6 µM [activator, single point]"
